The source of these data is PMC12552961.

Protein sequences, listed by entry. Tags and fused reporters are not part of them.
UniProt Q6ZSJ8: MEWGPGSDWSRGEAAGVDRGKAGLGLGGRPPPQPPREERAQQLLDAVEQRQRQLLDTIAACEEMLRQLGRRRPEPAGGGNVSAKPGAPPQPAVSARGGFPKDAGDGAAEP
UniProt Q96SB4: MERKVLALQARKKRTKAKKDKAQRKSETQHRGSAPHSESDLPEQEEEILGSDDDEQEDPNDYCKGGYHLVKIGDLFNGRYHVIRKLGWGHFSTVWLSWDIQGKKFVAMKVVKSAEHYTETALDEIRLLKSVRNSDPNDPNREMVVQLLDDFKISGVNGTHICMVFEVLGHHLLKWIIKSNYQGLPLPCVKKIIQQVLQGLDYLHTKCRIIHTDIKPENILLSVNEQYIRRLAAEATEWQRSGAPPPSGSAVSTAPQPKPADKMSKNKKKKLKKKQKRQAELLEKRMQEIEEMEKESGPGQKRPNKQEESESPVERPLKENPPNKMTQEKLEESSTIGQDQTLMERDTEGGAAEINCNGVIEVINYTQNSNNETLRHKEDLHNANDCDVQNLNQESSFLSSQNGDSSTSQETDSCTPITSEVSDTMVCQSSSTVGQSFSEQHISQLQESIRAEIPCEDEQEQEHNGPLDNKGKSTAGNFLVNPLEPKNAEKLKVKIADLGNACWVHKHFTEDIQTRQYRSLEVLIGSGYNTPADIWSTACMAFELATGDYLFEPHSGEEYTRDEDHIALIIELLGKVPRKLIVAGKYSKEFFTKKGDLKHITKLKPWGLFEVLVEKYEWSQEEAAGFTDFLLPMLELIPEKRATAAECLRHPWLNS

No constants are given. Whether binding was seen depends on the method and setting. Binding seen in cells or lysates may run through a third protein. Some entries that bind do so weakly or less than the wild type.

In the test the target is GFP-C1orf122 (Chromosome 1 open reading frame 122) (UniProt Q6ZSJ8). Put plainly: co-IP; 293T cells transfected with GFP-C1orf122 and FLAG-SRPK1, lysed 48 h after transfection in RM buffer; anti-GFP magnetic beads, 4 °C overnight, four washes; Western blot. Background: Immunoblotting shows a protein as a band on a membrane.

“FLAG-SRPK1 (serine/arginine-rich protein-specific kinase 1) (from UniProt Q96SB4 1-655) (enzyme)”: the binding entry is given as “binds”.
